Data: patent EP1746106A2
These are yes or no findings as the source states them, for the method shown. Some binding calls cover weakened binding; strength is not graded here.

By UniProt entry, the sequences of proteins in these tests, tags left out. Residues count along the entry.
UniProt Q9D777, residues 96-241: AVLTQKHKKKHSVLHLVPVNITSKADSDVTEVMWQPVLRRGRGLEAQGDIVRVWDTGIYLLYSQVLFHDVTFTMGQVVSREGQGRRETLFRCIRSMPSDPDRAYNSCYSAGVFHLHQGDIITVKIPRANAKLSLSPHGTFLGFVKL

Target: hTACI(32-114)-Ig (human)
Assay: ELISA, hTACI(32-114)-Ig coated at 5 ug/ml, APRIL added at 0.0048 to 3 µg/ml (Figure 14 legend)

- binding: binds
Substance: murine APRIL (protein preparation of Example 9, tag not stated) (from UniProt Q9D777 96-241) (ligand)
